Test results: the supplement of paper PMC3334620
Over roughly 33,000 sequences, “E-score (-0.5 to 0.5)” has its median near -0.0059; the highest 2% begin near 0.26. The list shows a part of the results.

What follows are sequences tested against T1, Cin5 (UniProt P40917) (assay: PBM E-score (8-mer binding enrichment) (E-score (-0.5 to 0.5)); higher = stronger / more preferred TF binding). Details: protein concentration: 100 nM; construct: GST-full length.
T1 sequence: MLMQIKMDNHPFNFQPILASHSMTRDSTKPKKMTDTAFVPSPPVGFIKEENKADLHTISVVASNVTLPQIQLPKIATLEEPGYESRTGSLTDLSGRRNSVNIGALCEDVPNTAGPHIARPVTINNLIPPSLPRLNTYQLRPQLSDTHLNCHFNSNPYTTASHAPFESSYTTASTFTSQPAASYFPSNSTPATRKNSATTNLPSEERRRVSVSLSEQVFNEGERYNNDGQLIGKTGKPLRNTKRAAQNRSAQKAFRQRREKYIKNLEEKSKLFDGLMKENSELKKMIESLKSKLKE
Summary of the method: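 Yeast transcription factors, full-length or as DNA-binding domains, were expressed with a GST tag using PURExpress in vitro transcription/translation. At about 100-200 nM they were applied to universal all-10-mer Agilent arrays, double-stranded by primer extension on fresh or once-stripped slides. Fluorescent anti-GST detected bound protein, and masliner normalised the scans. E-scores for ungapped eight-base words, pooled with reverse complements, came from the Universal PBM Analysis Suite.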

CAGAGCGC was tested. Which “PBM E-score” value did it give?
The value was -0.267.

AGATCCAT was tested. Which “PBM E-score” value did it give?
The value was -0.121.

Which “PBM E-score” value does the source give for AAAATCGT here?
Its value is 0.123.

With GCCTAGGA as the sequence, how does the “PBM E-score” value read?
Its value is -0.236.

With CAATTGAG as the sequence, how does the “PBM E-score” value read?
Its value is 0.183.

Which “PBM E-score” value does the source give for CTGCTTGC here?
The value was -0.12.

With ACACCCCG as the sequence, how does the “PBM E-score” value read?
Its value is -0.248.

For ACAGCACA, which “PBM E-score” value is on record?
Its value is 0.00212.

With CGGCTTTA as the sequence, how does the “PBM E-score” value read?
Its value is -0.0829.

With GCCCCGCA as the sequence, how does the “PBM E-score” value read?
Its value is -0.109.

Which “PBM E-score” value does the source give for ATCTGTAA here?
Its value is 0.023.

How did the “PBM E-score” value turn out when ACTTAGCT was run?
The value was -0.133.

Which “PBM E-score” value does the source give for ACCTGTCT here?
Its value is -0.0809.

How did the “PBM E-score” value turn out when AACTAACG was run?
The value was 0.072.

TACGGCCA was tested. Which “PBM E-score” value did it give?
The value was -0.0556.

With GCGAGAAC as the sequence, how does the “PBM E-score” value read?
The value was 0.0973.

Which “PBM E-score” value does the source give for GCATCCGA here?
The value was -0.213.

How did the “PBM E-score” value turn out when AGTCGACC was run?
Its value is -0.083.

Which “PBM E-score” value does the source give for ATGGGCAG here?
Its value is 0.039.

CCAAACGA was tested. Which “PBM E-score” value did it give?
The value was -0.0707.

Which “PBM E-score” value does the source give for CCCGAAGA here?
The value was -0.127.

With GGACTAAA as the sequence, how does the “PBM E-score” value read?
Its value is -0.0876.

How did the “PBM E-score” value turn out when CGATCGGC was run?
Its value is 0.0129.

For AATCAGAG, which “PBM E-score” value is on record?
Its value is 0.112.

Which “PBM E-score” value does the source give for AAAGTCGC here?
Its value is 0.0786.

Which “PBM E-score” value does the source give for GTAACACA here?
The value was 0.194.

Which “PBM E-score” value does the source give for CGGACTGA here?
Its value is -0.0989.

For AACAGTAG, which “PBM E-score” value is on record?
The value was 0.101.

CGCCCCTA was tested. Which “PBM E-score” value did it give?
The value was 0.00558.

CAAGAGAA was tested. Which “PBM E-score” value did it give?
The value was 0.203.

ACGACGTC was tested. Which “PBM E-score” value did it give?
The value was -0.0462.

How did the “PBM E-score” value turn out when CGTACTGA was run?
The value was 0.115.

For ACGGAGCT, which “PBM E-score” value is on record?
Its value is -0.274.

Which “PBM E-score” value does the source give for AAGCCCCA here?
The value was -0.102.

ATTTTCTG was tested. Which “PBM E-score” value did it give?
The value was 0.0829.

How did the “PBM E-score” value turn out when ATAACTGC was run?
The value was 0.0345.

With AGCAAGTC as the sequence, how does the “PBM E-score” value read?
Its value is 0.00168.

Which “PBM E-score” value does the source give for ATCTATCG here?
The value was 0.0239.

Which “PBM E-score” value does the source give for GATTCTAA here?
The value was -0.0896.

AAATCGGA was tested. Which “PBM E-score” value did it give?
The value was 0.00712.

How did the “PBM E-score” value turn out when GTCATTGA was run?
The value was 0.0602.

How did the “PBM E-score” value turn out when AAGTCCGG was run?
The value was -0.187.

Which “PBM E-score” value does the source give for ACCGCACA here?
The value was 0.0171.

ACCTATTC was tested. Which “PBM E-score” value did it give?
The value was -0.0399.

Which “PBM E-score” value does the source give for AAAGGCTA here?
The value was 0.0337.

With GCGTCACA as the sequence, how does the “PBM E-score” value read?
The value was 0.0289.

With CCTCCAAA as the sequence, how does the “PBM E-score” value read?
Its value is -0.197.

Which “PBM E-score” value does the source give for ACGTCGGC here?
The value was -0.0908.

Which “PBM E-score” value does the source give for AGTAAGAG here?
Its value is -0.01.

With AACATAGG as the sequence, how does the “PBM E-score” value read?
Its value is -0.0463.

Which “PBM E-score” value does the source give for CACACCGC here?
Its value is -0.13.

With TAAACTGA as the sequence, how does the “PBM E-score” value read?
Its value is 0.051.

Which “PBM E-score” value does the source give for ACAAGGGA here?
The value was -0.186.

For ACGCTCGA, which “PBM E-score” value is on record?
Its value is -0.00995.

For AGTTGTAG, which “PBM E-score” value is on record?
The value was 0.104.

How did the “PBM E-score” value turn out when GCTGCGCA was run?
Its value is -0.141.

How did the “PBM E-score” value turn out when AGCTGACA was run?
The value was 0.0172.

How did the “PBM E-score” value turn out when AGCGGCCT was run?
Its value is -0.276.

Which “PBM E-score” value does the source give for CCGTATTC here?
The value was 0.0345.

GCTAAGTA was tested. Which “PBM E-score” value did it give?
The value was 0.046.

CCTTTGCA was tested. Which “PBM E-score” value did it give?
The value was -0.0748.

With GGCTTTGA as the sequence, how does the “PBM E-score” value read?
Its value is -0.0566.

How did the “PBM E-score” value turn out when CGACCCTC was run?
Its value is -0.298.

With AAGGCGTG as the sequence, how does the “PBM E-score” value read?
The value was -0.0734.

How did the “PBM E-score” value turn out when AACTAAGG was run?
Its value is 0.0624.

With GACGCCCA as the sequence, how does the “PBM E-score” value read?
The value was -0.0707.

Which “PBM E-score” value does the source give for AGGCGAAC here?
The value was -0.102.

How did the “PBM E-score” value turn out when CTAATAAA was run?
The value was 0.164.

With GAGAAGCA as the sequence, how does the “PBM E-score” value read?
The value was -0.0556.

For AGGCCAAT, which “PBM E-score” value is on record?
The value was -0.00799.

With CCGTTAGG as the sequence, how does the “PBM E-score” value read?
The value was -0.155.

Which “PBM E-score” value does the source give for AGCTAACA here?
The value was -0.0476.

How did the “PBM E-score” value turn out when ATCCCTAC was run?
The value was 0.0672.

With GAGAGGGA as the sequence, how does the “PBM E-score” value read?
The value was -0.288.

How did the “PBM E-score” value turn out when CAATAGAC was run?
The value was 0.0892.

How did the “PBM E-score” value turn out when ACATCCCA was run?
Its value is -0.0872.

CGGGTCAA was tested. Which “PBM E-score” value did it give?
The value was -0.0269.

Which “PBM E-score” value does the source give for GTGTTGGA here?
Its value is -0.0393.

Which “PBM E-score” value does the source give for CACCTTAA here?
The value was -0.0476.

With TACGTAAA as the sequence, how does the “PBM E-score” value read?
Its value is 0.302.

For CATCGTAC, which “PBM E-score” value is on record?
Its value is 0.0675.

With GTCGACAC as the sequence, how does the “PBM E-score” value read?
The value was -0.0723.

For AATTATGG, which “PBM E-score” value is on record?
Its value is 0.156.

How did the “PBM E-score” value turn out when CCAGCCCC was run?
The value was -0.131.

With TGGTCAAA as the sequence, how does the “PBM E-score” value read?
Its value is 0.0901.

TGTGAACA was tested. Which “PBM E-score” value did it give?
Its value is 0.0488.

How did the “PBM E-score” value turn out when GTCAGCGA was run?
Its value is -0.0481.

How did the “PBM E-score” value turn out when ACGGGACG was run?
Its value is -0.0796.

AATCAGGG was tested. Which “PBM E-score” value did it give?
The value was -0.152.

GCACCCCA was tested. Which “PBM E-score” value did it give?
Its value is 0.143.

Which “PBM E-score” value does the source give for ATGAATTG here?
The value was 0.183.

For ATATTCAG, which “PBM E-score” value is on record?
The value was 0.158.

How did the “PBM E-score” value turn out when ATGAGTCA was run?
Its value is 0.0858.

With CCCACCAG as the sequence, how does the “PBM E-score” value read?
The value was -0.142.
